Assay results as given in PubChem BioAssay AID1665 (Sanford-Burnham Center for Chemical Genomics, 2009).
Several values for one entry are separate records, joined by “and”; a condition that tells them apart may be missing. Equal entries are not always repeated. The list shows a part of the results. Some salts and complexes are drawn in separate pieces, as the source files them; their charges need not balance.

Assay: modulators of beta-catenin nuclear translocation, primary screen, imaging, HeLa cells, immunofluorescence, high-content (AID 1665)
Conditions: measured here: cell count, cytotoxicity flag, at 5 µM

| SMILES | cell count |
| --- | --- |
| O=C(O)CNc1ccc([As](=O)(O)O)cc1 | 1200 cells |
| O=[N+]([O-])c1cccc(NC2=NCC(CBr)S2)c1 (configuration not stated) | 1350 cells |
| O=[N+]([O-])c1ncn(CCn2ncnc2[N+](=O)[O-])n1 | 1100 cells |
| CC(C)(C)C(=O)NC(Sc1ccncn1)C(Cl)(Cl)Cl (configuration not stated) | 1300 cells |
| CP(=O)(OC12CC3CC(CC(C3)C1)C2)OC12CC3CC(CC(C3)C1)C2 | 1190 cells |
| O=C(Nc1cc([As](=O)(O)O)ccc1O)c1ccccc1 | 1160 cells |
| CCOC(=O)c1ccc(NP(C)(=O)Oc2ccc(Cl)cc2)cc1 (configuration not stated) | 941 cells |
| CC1CCN(C(=O)Oc2c(Cl)cc(Cl)c3cccnc23)CC1 | 1240 cells |
| CN(C)C(=O)OCCc1n(C)cc[n+]1C | 967 cells |
| CC(C)=N/N=C(\N)N[N+](=O)[O-] | 1480 cells |
| CN(C)C(=O)c1c([N+](=O)[O-])cc([N+](=O)[O-])cc1[N+](=O)[O-] | 1100 cells |
| CP(=O)(Nc1ccc(Cl)cc1)Oc1ccc(F)cc1 (configuration not stated) | 1380 cells |
| CCN(/C(=N/P(=O)(N1CCOCC1)N1CCOCC1)N1CCOCC1)c1ccc(OC)cc1 | 1080 cells |
| C[N+]1=C2C=CC=CC=C2SC12C([N+](=O)[O-])=CC([N+](=O)[O-])=C[C-]2[N+](=O)[O-] (configuration not stated) | 1390 cells |
| Nc1ccc([As](=O)(O)c2ccc(N)cc2)cc1 | 1110 cells |
| CC(C)(C)c1ccc(OP(C)(=O)O)cc1 | 958 cells |
| COc1ccccc1OP(C)(=O)Nc1ccccc1Br (configuration not stated) | 1070 cells |
| O=[N+]([O-])c1cc([N+](=O)[O-])c(CCNc2ccccc2)c([N+](=O)[O-])c1 | 473 cells |
| CCc1nc2c(n1)c1c(non1O)c1c2no[n+]1[O-] | 1360 cells |
| CCc1ccc(OP(C)(=O)Nc2cccnc2)cc1 (configuration not stated) | 1110 cells |
| CP(=O)(Oc1ccccc1)N1CCOC1=O (configuration not stated) | 785 cells |
| Cc1ccc(NP(=O)(Oc2ccccc2)Oc2ccccc2)nc1 | 1160 cells |
| O=C(OCCCN1CCCC1)C(O)(c1ccccc1)C1CCCCC1 (configuration not stated) | 1300 cells |
| COc1ccccc1OP(C)(=O)Nc1c(C)n(C)n(-c2ccccc2)c1=O (configuration not stated) | 892 cells |

| SMILES | cell count |
| --- | --- |
| O=[N+]([O-])c1cccc2n[nH]nc12 | 1180 cells |
| COc1ccc(C2=NCC(CBr)S2)cc1 (configuration not stated) | 1150 cells |
| CCN(CC)CC(O)COC(=O)C(O)(c1ccccc1)C1CCCCC1 (configuration not stated) | 978 cells |
| CCc1ccc(OP(C)(=O)O)cc1 | 1420 cells |
| COc1ccccc1OP(C)(=O)Nc1ccc(C)cc1C (configuration not stated) | 1370 cells |
| CP(=O)(Nc1ccccn1)Oc1ccccc1 (configuration not stated) | 1090 cells |
| Cc1c2non([O-])c-2c(C)[n+](=O)[n+]1[O-] | 716 cells |
| O=C(NC(Sc1ccncn1)C(Cl)(Cl)Cl)c1ccccc1 (configuration not stated) | 1010 cells |
| O=[N+]([O-])c1cc([N+](=O)[O-])c(Nc2ccccn2)c([N+](=O)[O-])c1 | 985 cells |
| Nc1cc(N)c2nonc2c1[N+](=O)[O-] | 1330 cells |
| Cc1c(NP(C)(=O)Oc2ccc(C(C)C)cc2)c(=O)n(-c2ccccc2)n1C (configuration not stated) | 1340 cells |
| CN(C)CCOC(=O)C(O)(c1ccccc1)C1CCCC1 (configuration not stated) | 1190 cells |
| Clc1ccc(Cl)c(NC2=NCC(CBr)S2)c1 (configuration not stated) | 1150 cells |
| CN1CCCC(OC(=O)C(c2ccccc2)c2ccccc2)C1 (configuration not stated) | 553 cells |
| Cc1ccc(OP(=O)(Nc2nccs2)Oc2ccc(C)cc2)cc1 | 1390 cells |
| COc1ccccc1OP(=O)(Nc1ccc(C)cn1)Oc1ccccc1OC | 947 cells |
| Cc1ccc(N/C(=N/P(=O)(N2CCOCC2)N2CCOCC2)N2CCOCC2)cc1 | 1140 cells |
| COc1ccccc1OP(C)(=O)Nc1ccc(Br)cc1 (configuration not stated) | 1370 cells |
| NC(=O)c1cc([N+](=O)[O-])cc([N+](=O)[O-])c1N | 1090 cells |
| CP(=O)(OCCOc1ccccc1)OCCOc1ccccc1 | 1070 cells |
| CP(=O)(Nc1ccc(Cl)cc1Cl)Oc1ccccc1 (configuration not stated) | 1090 cells |
| Nc1cccc2ccc([As](=O)(O)O)cc12 | 1220 cells |
| CCN(N=Nc1nonc1N)c1nonc1N | 1070 cells |
| Cc1nc2ccc3ccccc3c2o1.O=[N+]([O-])c1cc([N+](=O)[O-])c(O)c([N+](=O)[O-])c1 | 807 cells |

| SMILES | cell count |
| --- | --- |
| COc1ccc(OP(C)(=O)Nc2ccccc2Br)cc1 (configuration not stated) | 1180 cells |
| Cc1ccc(NP(=O)(Oc2ccccc2F)Oc2ccccc2F)nc1 | 1350 cells |
| COc1ccccc1OP(C)(=O)Nc1ccc(C)c(C)c1 (configuration not stated) | 1180 cells |
| CCOP(=O)(Nc1ccccc1)OCC | 1130 cells and 1270 cells |
| Cc1cc(SC(NC(=O)c2ccc(F)cc2)C(Cl)(Cl)Cl)ncn1 (configuration not stated) | 1160 cells |
| Cc1cc(C)cc(OP(C)(=O)Nc2cccc(C(F)(F)F)c2)c1 (configuration not stated) | 845 cells |
| O=P(Nc1nc2ccc(Cl)cc2s1)(c1ccccc1)c1ccccc1 | 1300 cells |
| O=C(O)c1ccccc1[As](=O)(O)O | 1120 cells |
| CC(=O)Nc1ccc([As](=O)(O)O)cc1 | 1180 cells |
| CN(C)C(=O)Oc1noc2ccccc12 | 1380 cells |
| O=c1c2cc([N+](=O)[O-])ccc2[nH]c2c([N+](=O)[O-])cc([N+](=O)[O-])cc12 | 596 cells |
| CCCCCOc1ccc(NP(C)(=O)Oc2ccc(Cl)cc2Cl)cc1 (configuration not stated) | 1330 cells |
| Cc1ccccc1OP(=O)(Nc1ccccn1)Oc1ccccc1C | 1320 cells |
| CP(=O)(Nc1ccccc1)Oc1ccc(F)cc1 (configuration not stated) | 1370 cells |
| CCN(CC)CCCOC(=O)C(O)(c1ccccc1)C1CCCCC1 (configuration not stated) | 535 cells |
| Cc1ccc(OP(=O)(Nc2ccccn2)Oc2ccc(C)cc2)cc1 | 1050 cells |
| CC(=O)NC(SC(=S)N(CC(C)C)CC(C)C)C(Cl)(Cl)Cl (configuration not stated) | 580 cells |
| COC(=O)c1cc2c(s1)N=C(c1ccccc1)N(C)P2(=O)N1CCOCC1 (configuration not stated) | 1440 cells |
| COc1ccc(OP(C)(=O)Nc2ccc(SC(F)(F)F)cc2)cc1 (configuration not stated) | 1100 cells |
| CCOC(=O)c1ccc(NP(C)(=O)Oc2ccc(F)cc2)cc1 (configuration not stated) | 477 cells |
| CCOC(=O)NC(Sc1ccccc1)C(Cl)(Cl)Cl (configuration not stated) | 1330 cells |
| Cc1ccc(NP(=O)(Oc2cccc(C)c2)Oc2cccc(C)c2)nc1 | 1350 cells |
| c1ccc(-c2nn[nH]n2)c(-c2nn[nH]n2)c1 | 1100 cells |
| O=C(NC1CCS(=O)(=O)C1)NP(=S)(Oc1ccccc1)Oc1ccccc1 (configuration not stated) | 1040 cells |

| SMILES | cell count |
| --- | --- |
| CCNC(=S)/N=C(\N)N[N+](=O)[O-] | 1480 cells |
| CC(=O)Nc1ccc(Oc2c([N+](=O)[O-])cc([N+](=O)[O-])cc2[N+](=O)[O-])cc1 | 1150 cells |
| COc1ccc2c(c1O)-c1c(O)c(OC)cc3c1[C@H](C2)[N+](C)(C)CC3.O=[N+]([O-])c1cc([N+](=O)[O-])c([O-])c([N+](=O)[O-])c1[O-] | 1110 cells |
| CC(=O)Nc1ccc([As](=O)(O)O)c(O)c1 | 1140 cells |
| C[C@@H]1C=CCP(=O)(Oc2ccccc2)O1 (some centres not stated) | 1210 cells |
| C[C@H]1OP(=O)(Oc2ccccc2)C[C@@H]2O[C@@H]21 (some centres not stated) | 1170 cells |
| O=C(OCCN1CCN(CCOCc2ccccc2)CC1)C(O)(c1ccccc1)c1ccccc1 | 995 cells |
| O=C(OC1CN2CCC1CC2)c1ccc([N+](=O)[O-])cc1 (configuration not stated) | 967 cells |
| CC(C)c1ccc(OP(C)(=O)Nc2ccc(SC(F)(F)F)cc2)cc1 (configuration not stated) | 1020 cells |
| CC(C)(C)C(=O)NC(Sc1ccccc1)C(Cl)(Cl)Cl (configuration not stated) | 1160 cells |
| CP(=O)(Nc1ccccc1F)Oc1ccccc1 (configuration not stated) | 1020 cells |
| CCOc1ccc(C2=NCC(CBr)S2)cc1 (configuration not stated) | 969 cells |
| O=P1(Nc2nc3ccc(Cl)cc3s2)COc2ccccc2O1 (configuration not stated) | 1240 cells |
| Cc1ccccc1NP(C)(=O)Nc1ccccc1C | 826 cells |
| CP(=O)(Nc1ccc2c(c1)OCCO2)Oc1ccccc1 (configuration not stated) | 1240 cells |
| c1nnnn1CCn1cnnn1 | 1200 cells |
| CCOP(C)(=S)SCC(=O)NC(C)(CC)C(=O)O (configuration not stated) | 998 cells |
| O=P(Nc1nccs1)(c1ccccc1)c1ccccc1 | 1090 cells |
| CC(C)C(=O)NC(Sc1ccccc1)C(Cl)(Cl)Cl (configuration not stated) | 1120 cells |
| CP(=O)(Nc1ccc(SC(F)(F)F)cc1)Oc1ccc(F)cc1 (configuration not stated) | 1270 cells |
| O=C(OC1CN2CCC1CC2)c1cccc(Cl)c1 (configuration not stated) | 1100 cells |
| Nc1ccc([As](=O)(O)c2ccc([N+](=O)[O-])cc2)cc1 | 1350 cells |
| C(Cc1nn[nH]n1)Cc1nn[nH]n1 | 524 cells |
| O=[N+]([O-])c1cc([N+](=O)[O-])c(NCC2CCS(=O)(=O)C2)c([N+](=O)[O-])c1 (configuration not stated) | 912 cells |

| SMILES | cell count |
| --- | --- |
| Cc1cc(-c2cccc3ccccc23)c(C)cn1.O=[N+]([O-])c1cc([N+](=O)[O-])c(O)c([N+](=O)[O-])c1 | 1220 cells |
| O=[As](O)(c1ccccc1)c1ccc(O)cc1 | 1370 cells |
| O=[N+]([O-])c1ncn(CCn2cnc([N+](=O)[O-])n2)n1 | 1220 cells |
| CC(=O)NC(SC(=S)N(C)C)C(Cl)(Cl)Cl (configuration not stated) | 537 cells |
| O=[N+]([O-])c1ccc(OP2(=O)COCCO2)cc1 (configuration not stated) | 1260 cells |
| COc1ccc(NP(C)(=O)Oc2ccccc2OC)cc1 (configuration not stated) | 1130 cells |
| C[C@H]1OP(=O)(Oc2ccccc2)[C@H](O)[C@H](O)[C@H]1N=[N+]=[N-] (some centres not stated) | 1100 cells |
| O=P(Nc1nc2ccccc2s1)(c1ccccc1)c1ccccc1 | 1170 cells |
| CN(C)CCOC(=O)C(O)(c1ccccc1)C1CCCCC1 (configuration not stated) | 1100 cells |
| O=P(Nc1ccccn1)(c1ccc(Br)cc1)c1ccc(Br)cc1 | 1550 cells |
| COc1ccc(OP(C)(=O)Nc2cccc(Br)c2)cc1 (configuration not stated) | 1330 cells |
| CP(=O)(Nc1ccc(SC(F)(F)F)cc1)Oc1ccccc1 (configuration not stated) | 554 cells |
| Nc1cccc([As](=O)(O)c2ccccc2)c1 | 1340 cells |
| CCCOc1ccc(NP(C)(=O)Oc2ccc(Cl)cc2)cc1 (configuration not stated) | 1000 cells |
| O=P1(Nc2ccc(Br)cn2)COc2ccccc2OC1 | 1090 cells |
| O=[As](O)(c1cccs1)c1cccs1 | 1310 cells |
| Cc1ccc(OCC(=O)OC2CN3CCC2CC3)cc1 (configuration not stated) | 1130 cells |
| O=P1(Nc2ncccn2)COc2ccccc2OC1 | 1100 cells |
| CN1CCCCC1COC(=O)C1(O)c2ccccc2CCc2ccccc21 (configuration not stated) | 949 cells |
| COc1ccccc1OP(C)(=O)Nc1c(C)cccc1C (configuration not stated) | 1410 cells |
| CCOC(=O)C(CC)C1=NC(C)(C)Cc2ccccc21.O=[N+]([O-])c1cc([N+](=O)[O-])c(O)c([N+](=O)[O-])c1 (configuration not stated) | 1140 cells |
